Laboratory results taken from PubChem BioAssay AID248 (DTP/NCI, 2004).
The list is a part of this screen's results and no random one: it is rich in T/C values a quarter to a half above the control, in often repeated tests (any T/C) and in doses without a T/C. Other doses and runs of a compound stand elsewhere. T/C is the treated group as % of the vehicle group. Some doses have a count of surviving animals in place of a T/C: the source files T/C as zero there, which appears to mark a toxic dose or a test without result, not a measured value. Some survivor counts are full or nearly so, which does not show that the dose was tolerated: survival well below the control is almost never listed, so the zero probably covers shortened survival too. Survivors were counted at the toxicity check, usually on the fifth day, unless a day is given; later deaths do not show. Schedule codes are those of the source, taken here to give the interval after Q, in days (D) or hours (H), and the number of doses after X. Some doses were run more than once; the results are listed from low to high. For survival time, this PubChem deposit counts one and a half times the control or more as active, and values a quarter to a half above the control carry no call in these data; other NCI protocols may use other cut-offs. Some schedules carry Z or #; the key to these is not given. Some structures stand for samples that the source files as different forms (salt, stereo form or complex); doses refer to the form tested.

System: L1210 leukemia ip in BDF1 mice, survival T/C
Test: NCI In Vivo Anticancer Drug Screen. Data for tumor model L1210 Leukemia (intraperitoneal) in B6D2F1 (BDF1) mice
Settings: T/C endpoint: mean survival time, higher T/C = longer survival
[1] = dose: 400.0 mg/kg/injection, schedule: Q04DX003 (ip), vehicle: Klucel (hydroxypropylcellulose) (HPC)
[2] = dose: 200.0 mg/kg/injection, schedule: Q01DX001 (ip), vehicle: saline
[3] = dose: 400.0 mg/kg/injection, schedule: Q01DX001 (ip), vehicle: saline
[4] = dose: 400.0 mg/kg/injection, schedule: Q01DX001 (ip), vehicle: steroid suspending solution
[5] = dose: 75.0 mg/kg/injection, schedule: Q01DX001 (ip), vehicle: saline
[6] = dose: 150.0 mg/kg/injection, schedule: Q01DX001 (ip), vehicle: saline
[7] = dose: 400.0 mg/kg/injection, schedule: Q01DX009 (ip), vehicle: Klucel (hydroxypropylcellulose) (HPC)
[8] = dose: 40.0 mg/kg/injection, schedule: Q01DX001 (ip), vehicle: saline
[9] = dose: 300.0 mg/kg/injection, schedule: Q01DX001 (ip), vehicle: saline
[10] = dose: 400.0 mg/kg/injection, schedule: Q04DX003 (ip), vehicle: saline with Tween-80
[11] = dose: 100.0 mg/kg/injection, schedule: Q04DX003 (ip), vehicle: saline with Tween-80
[12] = dose: 200.0 mg/kg/injection, schedule: Q04DX003 (ip), vehicle: saline with Tween-80

**Q.** What does the source list for `COC(=O)C1(N)CCCC1`?
**A.** T/C (dose: 45.0 mg/kg/injection, schedule: Q01DX009 (ip), vehicle: saline): 126 % of control; T/C (dose: 50.0 mg/kg/injection, schedule: Q01DX009 (ip), vehicle: saline): 130 % of control; T/C (dose: 66.0 mg/kg/injection, schedule: Q01DX009 (ip), vehicle: saline): 128 and 133 % of control; T/C (dose: 66.0 mg/kg/injection, schedule: Q01DX Z (ip), vehicle: saline): 131 % of control; T/C (dose: 100.0 mg/kg/injection, schedule: Q01DX009 (ip), vehicle: saline): 129 and 147 % of control; T/C (dose: 100.0 mg/kg/injection, schedule: Q01DX Z (ip), vehicle: saline): 136 % of control; T/C (dose: 150.0 mg/kg/injection, schedule: Q01DX009 (ip), vehicle: saline): 145 % of control; T/C [1]: 141 and 148 % of control

**Q.** `O=C(CCn1cccc1)c1csc2ccccc12` was tested. Which survivor count (dose: 100.0 mg/kg/injection, schedule: Q01DX001 (ip), vehicle: carboxymethylcellulose (CMC)) did it give?
**A.** 2 of 4

**Q.** What about the survivor count (dose: 400.0 mg/kg/injection, schedule: Q01DX001 (ip), vehicle: carboxymethylcellulose (CMC)) of the same compound?
**A.** 1 of 4

**Q.** For `CC1(C)N=C(N)N=C(N)N1c1ccc(Cl)cc1Cl`, which survivor count (dose: 100.0 mg/kg/injection, schedule: Q01DX009 (ip), vehicle: Klucel (hydroxypropylcellulose) (HPC)) is on record?
**A.** 1 of 6

**Q.** And the survivor count [2]?
**A.** 0 of 3

**Q.** And the survivor count (dose: 200.0 mg/kg/injection, schedule: Q04DX003 (ip), vehicle: Klucel (hydroxypropylcellulose) (HPC))?
**A.** 2 of 6

**Q.** What about the survivor count [3] of the same compound?
**A.** 0 of 3

**Q.** And the survivor count [1]?
**A.** 0 of 6

**Q.** How did the survivor count (dose: 100.0 mg/kg/injection, schedule: Q01DX001 (ip), vehicle: steroid suspending solution) turn out when `CN(C)C(=S)[S][Pb]([c]1ccccc1)([c]1ccccc1)[c]1ccccc1` was run?
**A.** 0 of 6

**Q.** What about the survivor count (dose: 200.0 mg/kg/injection, schedule: Q01DX001 (ip), vehicle: steroid suspending solution) of the same compound?
**A.** 0 of 6

**Q.** What about the survivor count [4] of the same compound?
**A.** 0 of 6

**Q.** What does the source list for `CCNCc1cc(Nc2cc(C)nc(/N=C(\N)Nc3ccc(Cl)c(Cl)c3)n2)ccc1OC`?
**A.** survivor count (dose: 150.0 mg/kg/injection, schedule: Q01DX001 (ip), vehicle: other): 2 of 6; survivor count (dose: 150.0 mg/kg/injection, schedule: Q04DX003 (ip), vehicle: Klucel (hydroxypropylcellulose) (HPC)): 3 of 6; survivor count (dose: 225.0 mg/kg/injection, schedule: Q04DX003 (ip), vehicle: Klucel (hydroxypropylcellulose) (HPC)): 2 of 6; survivor count (dose: 300.0 mg/kg/injection, schedule: Q01DX001 (ip), vehicle: other): 0 of 6; survivor count (dose: 340.0 mg/kg/injection, schedule: Q04DX003 (ip), vehicle: Klucel (hydroxypropylcellulose) (HPC)): 1 of 6

**Q.** `O=C(O)c1ccc(Br)c2ccccc12` was tested. Which survivor count (dose: 300.0 mg/kg/injection, schedule: Q01DX001 (ip), vehicle: carboxymethylcellulose (CMC)) did it give?
**A.** 2 of 6

**Q.** How did the survivor count [3] turn out when `N#C/C([SH2+])=C(/[SH2+])C#N.N#C/C([SH2+])=C(/[SH2+])C#N.N#C/C([SH2+])=C(/[SH2+])C#N.N#C/C([SH2+])=C(/[SH2+])C#N.[Co+3].[Co+3].c1ccc([P+](c2ccccc2)(c2ccccc2)c2ccccc2)cc1` was run?
**A.** 2 of 6

**Q.** Which results are given for `CCC(C(=O)Nc1ccncc1)c1ccccc1` (stereo not given)?
**A.** survivor count (dose: 37.5 mg/kg/injection, schedule: Q01DX001 (ip), vehicle: saline): 0 of 6; survivor count [5]: 0 of 6; survivor count [6]: 0 of 6

**Q.** With `CCOC(=O)COc1c(C(C)CC)cc([N+](=O)[O-])cc1[N+](=O)[O-]` (stereo not given) as the compound, how does the survivor count (dose: 200.0 mg/kg/injection, schedule: Q04DX002 (ip), vehicle: gum acacia) read?
**A.** 2 of 3

**Q.** What about the survivor count (dose: 400.0 mg/kg/injection, schedule: Q04DX002 (ip), vehicle: gum acacia) of the same compound?
**A.** 2 of 3

**Q.** How did the survivor count (dose: 12.5 mg/kg/injection, schedule: Q01DX009 (sc), vehicle: steroid suspending solution) turn out when `CC(=O)OCC(=O)[C@@]1(O)[C@H](C)C[C@H]2[C@@H]3C=C(C)C4=Cc5c(cnn5-c5ccc(F)cc5)C[C@]4(C)[C@H]3[C@@H](O)C[C@@]21C` was run?
**A.** 4 of 6

**Q.** And the survivor count (dose: 25.0 mg/kg/injection, schedule: Q01DX009 (sc), vehicle: steroid suspending solution)?
**A.** 3 of 6

**Q.** What about the survivor count (dose: 50.0 mg/kg/injection, schedule: Q01DX009 (ip), vehicle: steroid suspending solution) of the same compound?
**A.** 5 of 6

**Q.** What about the survivor count (dose: 100.0 mg/kg/injection, schedule: Q01DX009 (ip), vehicle: steroid suspending solution) of the same compound?
**A.** 6 of 6

**Q.** What about the survivor count (dose: 200.0 mg/kg/injection, schedule: Q01DX009 (ip), vehicle: steroid suspending solution) of the same compound?
**A.** 3 of 6

**Q.** And the survivor count [4]?
**A.** 6 of 6

**Q.** For `O=C(O)c1c(Br)c(Br)c(Br)c(Br)c1C(=O)Nc1ccc([N+](=O)[O-])cc1`, which survivor count [7] is on record?
**A.** 4 of 6

**Q.** How did the survivor count [1] turn out when `C/C(CCC(=O)O)=N\NC(=O)COc1ccc(Cl)cc1Cl` was run?
**A.** 0 of 6

**Q.** `CCC1CN2N=Cc3ccccc3C2=N1` (stereo not given) was tested. Which survivor count [8] did it give?
**A.** 3 of 6

**Q.** And the survivor count (dose: 80.0 mg/kg/injection, schedule: Q01DX001 (ip), vehicle: saline)?
**A.** 0 of 6

**Q.** And the survivor count (dose: 100.0 mg/kg/injection, schedule: Q01DX001 (ip), vehicle: saline)?
**A.** 0 of 6

**Q.** And the survivor count [2]?
**A.** 0 of 6

**Q.** What about the survivor count [3] of the same compound?
**A.** 0 of 6

**Q.** How did the survivor count (dose: 100.0 mg/kg/injection, schedule: Q01DX009 (ip), vehicle: water) turn out when `C=CC[N+](CC=C)(CC=C)CC[N+](CC=C)(CC=C)CC=C` was run?
**A.** 0 of 6

**Q.** And the survivor count (dose: 100.0 mg/kg/injection, schedule: Q04DX003 (ip), vehicle: water)?
**A.** 5 of 6

**Q.** What about the survivor count (dose: 200.0 mg/kg/injection, schedule: Q01DX009 (ip), vehicle: water) of the same compound?
**A.** 0 of 6

**Q.** What about the survivor count (dose: 200.0 mg/kg/injection, schedule: Q04DX003 (ip), vehicle: water) of the same compound?
**A.** 1 of 6

**Q.** And the survivor count (dose: 400.0 mg/kg/injection, schedule: Q04DX003 (ip), vehicle: water)?
**A.** 0 of 6

**Q.** For `O=[N+]([O-])c1ccccc1N=Nc1c(O)[nH]c2c(Cl)ccc(Cl)c12`, which survivor count [9] is on record?
**A.** 0 of 6

**Q.** `CC(C)=CCC(=O)Oc1ccccc1C(=O)O` was tested. Which survivor count [10] did it give?
**A.** 3 of 6

**Q.** With `C=C(C)CCc1ccccc1` as the compound, how does the survivor count [3] read?
**A.** 1 of 4

**Q.** What does the source list for `O=C1C=CC(=O)N1c1cc(Cl)c(Cl)cc1Cl`?
**A.** survivor count [5]: 0 of 6; survivor count [6]: 0 of 6; survivor count [9]: 0 of 6

**Q.** For `Nc1nc2c(c(=O)[nH]1)NC(CCNc1ccc(C(=O)NC(CCC(=O)O)C(=O)O)cc1)CN2` (stereo not given), which T/C (dose: 180.0 mg/kg/injection, schedule: Q01DX009 (ip), vehicle: other) is on record?
**A.** 127 % of control

**Q.** Which results are given for `Cc1cccc(C)c1N=Nc1cc[n+]([O-])cc1`?
**A.** survivor count (dose: 12.5 mg/kg/injection, schedule: Q04DX003 (ip), vehicle: saline with Tween-80): 3 of 6; survivor count [11]: 5 of 6; survivor count [12]: 2 of 6; survivor count [10]: 0 of 6

**Q.** With `O=[N+]([O-])c1ccc([As+](c2ccccc2)(c2ccccc2)c2ccccc2)cc1` as the compound, how does the survivor count [8] read?
**A.** 6 of 6

**Q.** And the survivor count [5]?
**A.** 6 of 6

**Q.** What about the survivor count [6] of the same compound?
**A.** 0 of 6

**Q.** What about the survivor count [9] of the same compound?
**A.** 0 of 6

**Q.** `NC(N)=NC(N)=NCCc1ccccc1` was tested. Which survivor count [3] did it give?
**A.** 1 of 6

**Q.** `CSc1ccc(NC(=O)Nc2cccc(F)c2)cc1` was tested. Which survivor count (dose: 400.0 mg/kg/injection, schedule: Q01DX009 (ip), vehicle: other) did it give?
**A.** 0 of 6

**Q.** How did the survivor count (dose: 100.0 mg/kg/injection, schedule: Q01DX009 (ip), vehicle: gum acacia) turn out when `O=C(NCN1CCOCC1)Nc1ccc(Cl)cc1` was run?
**A.** 0 of 6

**Q.** For `CCCCNC(=O)Nc1cc(Cl)ccc1C`, which survivor count (dose: 25.0 mg/kg/injection, schedule: Q01DX009 (ip), vehicle: Klucel (hydroxypropylcellulose) (HPC)) is on record?
**A.** 6 of 6

**Q.** And the survivor count (dose: 50.0 mg/kg/injection, schedule: Q01DX009 (ip), vehicle: Klucel (hydroxypropylcellulose) (HPC))?
**A.** 5 of 6 and 6 of 6

**Q.** And the survivor count (dose: 200.0 mg/kg/injection, schedule: Q01DX009 (ip), vehicle: Klucel (hydroxypropylcellulose) (HPC))?
**A.** 6 of 6

**Q.** What about the survivor count [7] of the same compound?
**A.** 6 of 6

**Q.** With `C/C(=C\Cl)CO` as the compound, how does the survivor count [10] read?
**A.** 0 of 6

**Q.** With `CCCCOP(=O)(OCCCC)[O][Pb]([CH2]C)([CH2]C)[CH2]C` as the compound, how does the survivor count (dose: 12.5 mg/kg/injection, schedule: Q01DX009 (ip), vehicle: saline with Tween-80) read?
**A.** 2 of 6

**Q.** What about the survivor count [11] of the same compound?
**A.** 5 of 6

**Q.** And the survivor count [12]?
**A.** 0 of 6

**Q.** What about the survivor count [10] of the same compound?
**A.** 0 of 6
